In the supplement of paper PMC10338343:
± gives the standard deviation. Only a part is listed here, and it is no random draw. Many of these values have a large error.

These sequences were tested on MILI (PIWIL2) piRISC loaded with piRNA #2 (26 nt) (assay: pre-steady-state target cleavage rate (min^-1); MIWI and MILI are mouse PIWI proteins and EfPiwi is from a freshwater sponge; tags in brackets are library labels; higher = faster piRNA-guided slicing of the target). Settings: guide: piRNA #2 5'p-UUAGGUAACCCAGUAGAUCCAGAGGA; auxiliary factor: 500 nM mouse GTSF1.
In short: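 A transcribed, DNA-blocked target RNA library […] was incubated at 33 °C for 0–8 or 0–960 min with 1 nM active affinity-purified piRISC carrying one synthetic guide, in HEPES–potassium acetate buffer with or without 500 nM GTSF1 partner protein. Uncleaved targets were then sequenced and normalised to depth and to weakly complementary targets. Data from three trials were pooled, with k3 capped at 0.0001 min^-1, and a burst-and-steady-state fit yielded the pre-steady-state cleavage rate.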
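Further: 1 nM active piRISC with 0.1 nM target library at 33 °C single turnover.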

Sequence	pre-steady-state target cleavage rate
CUUAAGGAGUGCGAUCUACUGGGUUACCUAA	0.00152 ± 0.0092
CUUAAGGACUGGAUCUACUGAGGUUACCUAA	0.000386 ± 0.036
CUUAAGGAGACCAUCUACUGGCAUACCUAA	0.000265 ± 0.015
CUUAAGGACUGGUUCUACUGGGUUAGCUAA	0.00522 ± 0.0073
CUUAAGGAGACCAUCUACUGCGUUUCCUAA	0.000253 ± 0.029
CUUAAGGAGACCAUCUACAGGGUUACCAAA	0.000812 ± 0.011
CUUAAGGAGACCAUCCUACUGGGUUACCUAA	0.000923 ± 0.011
CUUAAGGAGUGUAUCUACUGGGUUACCUAA	0.00376 ± 0.0065
CUUAAGGAGACCUUCUAUCUGGGUUACCUAA	0.000878 ± 0.013
CUUAAGGAGAGGAUCUUCUGGGAUACCUAA	0.000599 ± 0.02
CUUAAGGAGACCUUCUACUGGCUUACCUAA	0.000345 ± 0.01
CUUAUCCUCUGGAUCUACUGGGUUACCAAA	0.13 ± 0.023
CUUAAGGAGAGGAUCUACUGGUUUACCUAA	0.00185 ± 0.0053
CUUAAGGAGACCUACUACCGGGUUACCUAA	0.000361 ± 0.028
CUUAAGGAGACCUACUAACUGGGUUACCUAA	0.000187 ± 0.026
CUUAAGGAGACCAUCUACUGCGUUACGUAA	0.000394 ± 0.013
CUUAAGGAGACCUUCGACUGGGUUACCUAA	0.000501 ± 0.017
CUUAAGGAGAGGAUCUAAUGGGUUACCUAA	0.00371 ± 0.0051
CUUAAGGAGACGAUCUAGUGCGUUACCUAA	0.000763 ± 0.013
CUUAAGCUCUGGAUCUACUCGGUUACCUAA	0.0023 ± 0.006
CUUAACCUCUGGUUCUACUGGGUUACCAAA	0.134 ± 0.037
CUUAAGGAGAGGAUCUACUGGGUACCUAA	0.000511 ± 0.013
CUUAAGGAGACCUUACUACUGGGUUACCUAA	0.000552 ± 0.02
CUUAAGGAGACCUAGUUCUGGGUUACCAAA	0.000209 ± 0.036

Copied from the list:
Value for CUUAAGGAGACCUUCUAUCUGGGUUACCUAA under pre-steady-state target cleavage rate: 0.000878 ± 0.013
Value for CUUAAGGAGAGGAUCUUCUGGGAUACCUAA under pre-steady-state target cleavage rate: 0.000599 ± 0.02

Next part

Sequence	pre-steady-state target cleavage rate
CUUAAGGUCUGGAUCAACUGCGUUACCUAA	0.00384 ± 0.0068
CUUAAGGAGACCUUCUACAGGGUUACCAAA	0.000119 ± 0.037
CUUAAGGAGACGAUCUACUGGGUAUCCUAA	0.00074 ± 0.0091
CUUAAGGAGACCUUCUCACUGGGUUACCUAA	0.000605 ± 0.017
CUUAAGGAGUGGAUCUACUUGGUUACCUAA	0.00143 ± 0.0061
CUUAAGGAGACGAUCUACUGGGUAACCUUA	0.00045 ± 0.017
CUUAAGGUCUGGAUCUAGUGCGUUACCUAA	0.00201 ± 0.004
CUUAAGGAGACCUACUAGUGGGUUACCUAA	0.000248 ± 0.029
CUUAAGGAGACCAUCUACUGCGGUUACCUAA	0.000826 ± 0.0092
CUUAACCUCUGGAUCAUACUGGGUUACCUAA	0.00307 ± 0.0043
CUUAAGGAGACCAUGAACUGGGUUACCUAA	0.000117 ± 0.064
CUUAACCUCUGGUUCUACUGGGUUACGUAA	0.12 ± 0.043
CUUAAGGAGACGAUCUACUGCGUAACCUAA	0.000626 ± 0.0089
CUUAAGGAGUGGAUCGUACUGGGUUACCUAA	0.000269 ± 0.025
CUUAUCCUCUGGAUCUACUGGGUUAGGAAA	0.00108 ± 0.01
CUUAAGGUCUGGAUCUACUGCGUAACCUAA	0.00226 ± 0.0071
CUUAAGGAGACGAUCUACUGGGAUUACCUAA	0.00327 ± 0.0033
CUUAAGGAGACGAACUACUGCGUUACCUAA	0.000135 ± 0.024
CUUAAGGAGACGAACUACUGGGUUACCUUA	0.000118 ± 0.046
CUUAAGGAGAGGAUCUGACUGGGUUACCUAA	0.000115 ± 0.041
CUUAAGGAGACCUACUACUGGGUUACCGUAA	0.000145 ± 0.091
CUUAAGGAGUGGAUCUACUGGGUUAGCUUA	0.000494 ± 0.022
CUUAAGGAGACGAUGUACUGCGUUACCUAA	0.000502 ± 0.013
CUUAAGGACUGCAUCUACUGCGUUACCUAA	0.00229 ± 0.015

Sequence	pre-steady-state target cleavage rate
CUUAAGGAGUGGAUCUACUGCGUUUCCUAA	0.0011 ± 0.0069
CUUAUCCUCUGGAUCUACUGGCAAACCUAA	0.00056 ± 0.015
CUUAAGGAGACCUUCAACUGGGUUACCUUA	0.000148 ± 0.042
CUUAAGGAGACCAACUACAGGGUUACCUAA	0.000783 ± 0.0099
CUUAAGGAGACGAUCUAGUGGGUUAGCUAA	0.000448 ± 0.012
CUUAUCCUCUGGAUGUACUGCGUUACCUAA	0.0106 ± 0.0045
CUUAAGGAGACGAUCAUCUGGGUUACCUAA	0.00126 ± 0.0066
CUUAAGGACUGGAUCUUGAGGGUUACCUAA	0.000382 ± 0.014
CUUAAGGAGAGGAUCUAUCUGGGUUACCUAA	0.000133 ± 0.029
CUUAAGGAGACCUAGUACUUGGUUACCUAA	< 0.0001
CUUAAGCUCUGGAUCCACUGGGUUACCUAA	0.0284 ± 0.0092
CUUAAGGAGACCAUACUACUGGGUUACCUAA	0.000532 ± 0.02
CUUAAGGAGUGGAUCUACAGGGUUAGCUAA	0.000491 ± 0.028
CUUAAGGAGACCUAGAACUGGGUCUACCUAA	0.000172 ± 0.034
CUUAAGGUCUGGAUCUACUGCCAUACCUAA	0.000497 ± 0.014
CUUAAGGAGACCUAGAUCUCGGGUUACCUAA	0.000603 ± 0.014
CUUAAGGAGACCUAGAUGACGGUUACCAAA	0.000121 ± 0.018
CUUAUCCUCUGGUUCUACUGGGAUACCUAA	0.188 ± 0.078
CUUAAGGAGACCUAGAUGAGGGUAACCUUA	0.000462 ± 0.019
CUUAUCCUCUGGAUCUACUGGGCUUACCUAA	0.0139 ± 0.005
CUUAAGGAGACCUAGAUGUGAGGUUACCUAA	0.000324 ± 0.019
CUUAAGGAGACCAUCUACUGGGUUACCUA	0.00163 ± 0.0061
CUUAAGGAGACCUAGAUCUGGGUUACCUAAA	0.000372 ± 0.019
CUUAAGGAGACCAACAACUGGGUUACCUAA	0.000709 ± 0.01
